The results in this text go back to paper PMC3628344.

The target of experiment [1] is YAP (endogenous, SF268 cells) (human (endogenous in SF268)) (UniProt P46937). The experiment can be described thus: co-IP; IP of endogenous YAP from SF268 cell lysates (RIPA buffer, 4°C), blot for endogenous PTPN14.
Experiment [2] deals with V5-tagged YAP WW1 mutant (human) (UniProt P46937). In words: co-IP; 293A cells transiently co-transfected with GST-PTPN14 and V5-YAP constructs; V5 IP (RIPA buffer, 4°C), blotted for GST.
The target of experiment [3] is V5-tagged wild type YAP (human) (UniProt P46937). The description is as above.

These are yes or no findings as the source states them, for the method shown. Binding seen in cells or lysates may run through a third protein. Some binding calls cover weakened binding; strength is not graded here. For part of these data: Where a sequence is shown, tags or fusion partners need not be part of it.

B1: PTPN14 (endogenous, SF268 cells) (protein, UniProt Q15678 1-1187)
chain: MPFGLKLRRTRRYNVLSKNCFVTRIRLLDSNVIECTLSVESTGQECLEAVAQRLELRETHYFGLWFLSKSQQARWVELEKPLKKHLDKFANEPLLFFGVMFYVPNVSWLQQEATRYQYYLQVKKDVLEGRLRCTLDQVIRLAGLAVQADFGDYNQFDSQDFLREYVLFPMDLALEEAVLEELTQKVAQEHKAHSGILPAEAELMYINEVERLDGFGQEIFPVKDNHGNCVHLGIFFMGIFVRNRIGRQAVIYRWNDMGNITHNKSTILVELINKEETALFHTDDIENAKYISRLFATRHKFYKQNKICTEQSNSPPPIRRQPTWSRSSLPRQQPYILPPVHVQCGEHYSETHTSQDSIFHGNEEALYCNSHNSLDLNYLNGTVTNGSVCSVHSVNSLNCSQSFIQASPVSSNLSIPGSDIMRADYIPSHRHSAIIVPSYRPTPDYETVMRQMKRGILHTDSQSQSLRNLNIINTHAYNQPEDLVYSQPEMRERHPYTVPYGPQGVYSNKLVSPSDQRNPKNNVVPSKPGASAISHTVSTPELANMQLQGSHNYSTAHMLKNYLFRPPPPYPRPRPATSTPDLASHRHKYVSGSSPDLVTRKVQLSVKTFQEDSSPVVHQSLQEVSEPLTATKHHGTVNKRHSLEVMNSMVRGMEAMTLKSLHLPMARRNTLREQGPPEEGSGSHEVPQLPQYHHKKTFSDATMLIHSSESEEEEEEAPESVPQIPMLREKMEYSAQLQAALARIPNKPPPEYPGPRKSVSNGALRQDQASLPPAMARARVLRHGPAKAISMSRTDPPAVNGASLGPSISEPDLTSVKERVKKEPVKERPVSEMFSLEDSIIEREMMIRNLEKQKMAGLEAQKRPLMLAALNGLSVARVSGREENRVDATRVPMDERFRTLKKKLEEGMVFTEYEQIPKKKANGIFSTAALPENAERSRIREVVPYEENRVELIPTKENNTGYINASHIKVVVGGAEWHYIATQGPLPHTCHDFWQMVWEQGVNVIAMVTAEEEGGRTKSHRYWPKLGSKHSSATYGKFKVTTKFRTDSVCYATTGLKVKHLLSGQERTVWHLQYTDWPDHGCPEDVQGFLSYLEEIQSVRRHTNSMLEGTKNRHPPIVVHCSAGVGRTGVLILSELMIYCLEHNEKVEVPMMLRLLREQRMFMIQTIAQYKFVYQVLIQFLQNSRLI
For the molecule B1, the binding result in experiment [1] is “binds”.

B2: GST-tagged wild type PTPN14 (protein, UniProt Q15678 1-1187)
chain: MPFGLKLRRTRRYNVLSKNCFVTRIRLLDSNVIECTLSVESTGQECLEAVAQRLELRETHYFGLWFLSKSQQARWVELEKPLKKHLDKFANEPLLFFGVMFYVPNVSWLQQEATRYQYYLQVKKDVLEGRLRCTLDQVIRLAGLAVQADFGDYNQFDSQDFLREYVLFPMDLALEEAVLEELTQKVAQEHKAHSGILPAEAELMYINEVERLDGFGQEIFPVKDNHGNCVHLGIFFMGIFVRNRIGRQAVIYRWNDMGNITHNKSTILVELINKEETALFHTDDIENAKYISRLFATRHKFYKQNKICTEQSNSPPPIRRQPTWSRSSLPRQQPYILPPVHVQCGEHYSETHTSQDSIFHGNEEALYCNSHNSLDLNYLNGTVTNGSVCSVHSVNSLNCSQSFIQASPVSSNLSIPGSDIMRADYIPSHRHSAIIVPSYRPTPDYETVMRQMKRGILHTDSQSQSLRNLNIINTHAYNQPEDLVYSQPEMRERHPYTVPYGPQGVYSNKLVSPSDQRNPKNNVVPSKPGASAISHTVSTPELANMQLQGSHNYSTAHMLKNYLFRPPPPYPRPRPATSTPDLASHRHKYVSGSSPDLVTRKVQLSVKTFQEDSSPVVHQSLQEVSEPLTATKHHGTVNKRHSLEVMNSMVRGMEAMTLKSLHLPMARRNTLREQGPPEEGSGSHEVPQLPQYHHKKTFSDATMLIHSSESEEEEEEAPESVPQIPMLREKMEYSAQLQAALARIPNKPPPEYPGPRKSVSNGALRQDQASLPPAMARARVLRHGPAKAISMSRTDPPAVNGASLGPSISEPDLTSVKERVKKEPVKERPVSEMFSLEDSIIEREMMIRNLEKQKMAGLEAQKRPLMLAALNGLSVARVSGREENRVDATRVPMDERFRTLKKKLEEGMVFTEYEQIPKKKANGIFSTAALPENAERSRIREVVPYEENRVELIPTKENNTGYINASHIKVVVGGAEWHYIATQGPLPHTCHDFWQMVWEQGVNVIAMVTAEEEGGRTKSHRYWPKLGSKHSSATYGKFKVTTKFRTDSVCYATTGLKVKHLLSGQERTVWHLQYTDWPDHGCPEDVQGFLSYLEEIQSVRRHTNSMLEGTKNRHPPIVVHCSAGVGRTGVLILSELMIYCLEHNEKVEVPMMLRLLREQRMFMIQTIAQYKFVYQVLIQFLQNSRLI
As to B2, the binding result in experiment [2] and in experiment [3] was “binds” in each case.
